Consider 2 molecules from article doi:10.1101/2025.07.16.664180.

The target in assay [1] is methionine sulfoxide reductase A (MSRA), wildtype, Myc-tagged, expressed in white adipocyte cultures (UniProt Q9D6Y7). The assay is described as follows: native gel or EMSA.
Assay [2] concerns the target recombinant wildtype MSRA (not stated (human or mouse cDNA cloned)) (UniProt Q9D6Y7). Nature of the assay: SEC. (In general: In gel filtration, larger molecules generally elute earlier.)

These are yes or no findings as the source states them, for the method shown. Some binding calls cover weakened binding; strength is not graded here. For some assays here: Sequences can lack the tags named with a protein.

B1: methionine sulfoxide reductase A (MSRA), wildtype, Myc-tagged, expressed in white adipocyte cultures (enzyme, UniProt Q9D6Y7 21-233)
chain: MGDSASKVISAEEALPGRTEPIPVTAKHHVSGNRTVEPFPEGTQMAVFGMGCFWGAERKFWVLKGVYSTQVGFAGGHTRNPTYKEVCSEKTGHAEVVRVVYRPEHISFEELLKVFWENHDPTQGMRQGNDFGTQYRSAVYPTSAVQMEAALRSKEEYQKVLSKHNFGPITTDIREGQVFYYAEDYHQQYLSKNPDGYCGLGGTGVSCPMAIKK
Take B1: the binding entry in assay [1] is recorded as “binds”.

B2: recombinant wildtype MSRA (enzyme, UniProt Q9D6Y7 21-233)
chain: B1 chain
For the molecule B2, the binding entry in assay [2] is recorded as “binds”.
